Reference: article PMC7994674
No constants are given. Whether binding was seen depends on the method and setting. Binding seen in cells or lysates may run through a third protein. Some results given as binding are weak or reduced against the parent protein; the word gives no strength.

Chains of the proteins cited; added tags and fusions are not shown. Residues count along the entry.
UniProt P35951, residues 22-790: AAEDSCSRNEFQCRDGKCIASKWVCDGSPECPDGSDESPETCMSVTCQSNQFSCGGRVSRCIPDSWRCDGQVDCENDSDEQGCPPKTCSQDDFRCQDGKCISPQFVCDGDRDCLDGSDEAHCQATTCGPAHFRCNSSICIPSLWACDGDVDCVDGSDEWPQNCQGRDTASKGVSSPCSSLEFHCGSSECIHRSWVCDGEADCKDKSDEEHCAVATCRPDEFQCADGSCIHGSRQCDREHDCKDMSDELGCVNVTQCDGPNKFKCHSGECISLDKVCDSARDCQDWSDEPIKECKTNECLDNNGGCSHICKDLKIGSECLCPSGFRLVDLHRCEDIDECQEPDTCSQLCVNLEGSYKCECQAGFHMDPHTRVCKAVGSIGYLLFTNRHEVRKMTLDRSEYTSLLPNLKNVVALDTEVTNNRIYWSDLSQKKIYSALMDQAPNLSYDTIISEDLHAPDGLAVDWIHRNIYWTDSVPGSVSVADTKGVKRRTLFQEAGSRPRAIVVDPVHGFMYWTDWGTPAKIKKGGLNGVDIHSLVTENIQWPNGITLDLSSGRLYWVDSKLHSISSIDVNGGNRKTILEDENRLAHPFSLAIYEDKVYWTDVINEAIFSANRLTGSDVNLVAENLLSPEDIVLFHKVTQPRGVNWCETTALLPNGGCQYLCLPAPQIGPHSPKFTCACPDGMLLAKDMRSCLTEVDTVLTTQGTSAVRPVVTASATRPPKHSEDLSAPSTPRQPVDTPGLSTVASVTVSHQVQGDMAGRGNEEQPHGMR
UniProt E9Q414, residues 28-4505: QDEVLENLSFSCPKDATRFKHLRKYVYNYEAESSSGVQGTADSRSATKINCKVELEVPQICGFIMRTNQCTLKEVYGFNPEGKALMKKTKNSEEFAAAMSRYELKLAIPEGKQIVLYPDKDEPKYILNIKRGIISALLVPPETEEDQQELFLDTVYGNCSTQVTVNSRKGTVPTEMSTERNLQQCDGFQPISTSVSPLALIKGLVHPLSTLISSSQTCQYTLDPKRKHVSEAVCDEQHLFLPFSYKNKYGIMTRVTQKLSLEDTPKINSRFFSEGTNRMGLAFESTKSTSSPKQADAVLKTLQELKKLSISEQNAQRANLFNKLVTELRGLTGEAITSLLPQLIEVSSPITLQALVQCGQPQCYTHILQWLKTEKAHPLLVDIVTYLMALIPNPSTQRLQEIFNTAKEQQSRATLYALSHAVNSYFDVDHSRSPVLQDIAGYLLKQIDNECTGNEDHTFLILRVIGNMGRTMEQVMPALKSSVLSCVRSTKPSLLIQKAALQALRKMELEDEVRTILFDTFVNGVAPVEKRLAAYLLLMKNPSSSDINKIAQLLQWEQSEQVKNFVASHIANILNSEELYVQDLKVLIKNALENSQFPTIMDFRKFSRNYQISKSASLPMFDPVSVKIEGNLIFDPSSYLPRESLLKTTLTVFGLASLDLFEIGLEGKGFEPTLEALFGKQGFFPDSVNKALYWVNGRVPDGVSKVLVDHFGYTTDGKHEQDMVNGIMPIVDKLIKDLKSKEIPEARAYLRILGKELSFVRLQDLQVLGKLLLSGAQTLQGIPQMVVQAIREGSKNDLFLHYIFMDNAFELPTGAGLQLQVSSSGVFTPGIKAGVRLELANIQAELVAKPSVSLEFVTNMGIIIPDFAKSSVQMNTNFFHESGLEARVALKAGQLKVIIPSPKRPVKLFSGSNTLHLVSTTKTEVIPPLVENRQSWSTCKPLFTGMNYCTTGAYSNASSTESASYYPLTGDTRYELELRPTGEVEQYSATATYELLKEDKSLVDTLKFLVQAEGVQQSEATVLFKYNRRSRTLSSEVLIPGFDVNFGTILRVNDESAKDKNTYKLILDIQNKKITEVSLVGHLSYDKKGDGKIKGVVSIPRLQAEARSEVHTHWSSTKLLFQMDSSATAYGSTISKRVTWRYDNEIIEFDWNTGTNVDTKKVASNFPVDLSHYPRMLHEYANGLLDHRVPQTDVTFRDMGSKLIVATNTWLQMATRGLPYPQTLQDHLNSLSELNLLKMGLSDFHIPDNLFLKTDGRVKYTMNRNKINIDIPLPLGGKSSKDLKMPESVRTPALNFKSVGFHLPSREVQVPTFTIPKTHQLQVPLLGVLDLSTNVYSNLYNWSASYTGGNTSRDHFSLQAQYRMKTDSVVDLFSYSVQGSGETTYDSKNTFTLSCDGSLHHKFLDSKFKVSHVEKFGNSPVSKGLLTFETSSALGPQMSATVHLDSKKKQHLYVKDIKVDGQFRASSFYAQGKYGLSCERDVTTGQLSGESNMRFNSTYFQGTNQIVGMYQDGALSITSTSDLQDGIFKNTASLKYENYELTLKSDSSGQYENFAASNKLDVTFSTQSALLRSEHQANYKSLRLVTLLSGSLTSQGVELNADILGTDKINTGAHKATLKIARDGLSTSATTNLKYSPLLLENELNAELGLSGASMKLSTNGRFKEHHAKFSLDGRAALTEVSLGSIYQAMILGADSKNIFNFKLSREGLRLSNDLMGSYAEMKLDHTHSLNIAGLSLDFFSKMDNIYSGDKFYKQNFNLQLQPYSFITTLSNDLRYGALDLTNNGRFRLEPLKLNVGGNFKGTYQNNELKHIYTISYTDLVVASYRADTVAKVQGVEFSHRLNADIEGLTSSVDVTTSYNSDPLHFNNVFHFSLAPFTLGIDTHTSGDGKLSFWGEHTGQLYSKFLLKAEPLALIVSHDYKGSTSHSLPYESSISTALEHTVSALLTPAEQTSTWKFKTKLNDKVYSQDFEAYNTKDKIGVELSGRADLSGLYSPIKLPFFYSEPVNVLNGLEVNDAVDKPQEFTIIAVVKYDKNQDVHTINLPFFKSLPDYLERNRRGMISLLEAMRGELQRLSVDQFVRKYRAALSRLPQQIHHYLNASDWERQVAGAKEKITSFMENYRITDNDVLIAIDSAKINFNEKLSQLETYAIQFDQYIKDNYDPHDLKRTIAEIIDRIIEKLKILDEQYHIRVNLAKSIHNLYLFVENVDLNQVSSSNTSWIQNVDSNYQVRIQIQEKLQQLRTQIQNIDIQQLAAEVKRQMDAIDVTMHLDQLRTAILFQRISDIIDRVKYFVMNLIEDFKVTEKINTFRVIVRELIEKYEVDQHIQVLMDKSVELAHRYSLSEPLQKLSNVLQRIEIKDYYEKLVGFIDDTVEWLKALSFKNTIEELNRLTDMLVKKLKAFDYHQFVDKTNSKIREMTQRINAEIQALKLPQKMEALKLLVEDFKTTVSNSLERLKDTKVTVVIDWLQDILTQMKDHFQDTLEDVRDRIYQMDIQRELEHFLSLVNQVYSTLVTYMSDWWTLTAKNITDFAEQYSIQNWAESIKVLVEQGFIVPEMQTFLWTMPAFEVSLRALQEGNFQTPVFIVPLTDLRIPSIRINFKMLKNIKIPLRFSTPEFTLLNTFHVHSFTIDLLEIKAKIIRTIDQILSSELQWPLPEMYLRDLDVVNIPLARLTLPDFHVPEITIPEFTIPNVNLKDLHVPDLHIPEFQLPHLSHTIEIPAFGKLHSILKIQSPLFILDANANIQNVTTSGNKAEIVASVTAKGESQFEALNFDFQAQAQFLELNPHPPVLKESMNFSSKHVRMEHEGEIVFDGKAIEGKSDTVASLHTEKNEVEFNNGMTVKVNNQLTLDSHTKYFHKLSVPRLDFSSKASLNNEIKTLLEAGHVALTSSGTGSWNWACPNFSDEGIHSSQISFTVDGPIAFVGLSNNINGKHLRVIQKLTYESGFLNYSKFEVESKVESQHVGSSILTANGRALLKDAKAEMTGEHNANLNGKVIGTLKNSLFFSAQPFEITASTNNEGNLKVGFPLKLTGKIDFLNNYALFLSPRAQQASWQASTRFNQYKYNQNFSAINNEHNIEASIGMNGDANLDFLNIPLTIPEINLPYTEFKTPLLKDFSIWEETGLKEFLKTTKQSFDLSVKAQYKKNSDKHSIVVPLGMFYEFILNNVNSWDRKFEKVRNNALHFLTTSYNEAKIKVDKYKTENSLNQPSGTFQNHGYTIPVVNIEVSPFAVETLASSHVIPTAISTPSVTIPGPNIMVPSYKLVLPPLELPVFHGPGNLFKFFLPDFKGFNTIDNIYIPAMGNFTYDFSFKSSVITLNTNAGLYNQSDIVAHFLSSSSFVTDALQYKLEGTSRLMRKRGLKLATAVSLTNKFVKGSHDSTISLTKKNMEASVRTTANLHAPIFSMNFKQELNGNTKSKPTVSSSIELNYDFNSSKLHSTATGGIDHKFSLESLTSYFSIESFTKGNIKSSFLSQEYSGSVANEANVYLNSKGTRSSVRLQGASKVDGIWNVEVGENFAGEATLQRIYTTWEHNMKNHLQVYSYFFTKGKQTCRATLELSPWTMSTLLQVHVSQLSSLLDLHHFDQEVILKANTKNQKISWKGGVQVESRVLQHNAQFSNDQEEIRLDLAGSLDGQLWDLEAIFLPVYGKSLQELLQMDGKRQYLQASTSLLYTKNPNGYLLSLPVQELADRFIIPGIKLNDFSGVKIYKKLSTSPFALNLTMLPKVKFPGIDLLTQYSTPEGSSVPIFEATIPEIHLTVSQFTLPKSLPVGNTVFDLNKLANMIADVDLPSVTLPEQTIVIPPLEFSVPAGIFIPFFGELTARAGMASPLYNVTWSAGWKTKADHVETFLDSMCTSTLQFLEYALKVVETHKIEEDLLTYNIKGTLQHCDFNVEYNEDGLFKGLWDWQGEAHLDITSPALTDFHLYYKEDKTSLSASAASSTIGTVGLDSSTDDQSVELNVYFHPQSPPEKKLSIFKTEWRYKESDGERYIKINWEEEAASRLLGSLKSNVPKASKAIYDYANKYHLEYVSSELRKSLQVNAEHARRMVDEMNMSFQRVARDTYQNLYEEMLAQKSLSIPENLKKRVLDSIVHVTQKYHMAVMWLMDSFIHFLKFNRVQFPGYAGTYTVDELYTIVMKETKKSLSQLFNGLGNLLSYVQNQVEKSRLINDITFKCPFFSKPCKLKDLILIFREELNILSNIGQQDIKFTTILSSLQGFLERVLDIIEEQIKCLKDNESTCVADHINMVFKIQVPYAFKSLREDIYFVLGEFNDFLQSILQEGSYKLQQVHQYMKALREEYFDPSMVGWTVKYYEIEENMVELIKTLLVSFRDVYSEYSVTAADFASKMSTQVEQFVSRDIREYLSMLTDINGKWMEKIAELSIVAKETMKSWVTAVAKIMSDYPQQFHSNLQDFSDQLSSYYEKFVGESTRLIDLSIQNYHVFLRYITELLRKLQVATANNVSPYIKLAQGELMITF

Biological target: soluble LDL receptor ectodomain (mouse plasma sLDLR) (mouse (endogenous in plasma of wild-type mice)) (UniProt P35951)
Assay: co-IP; plasma pooled from three wild-type or Ldlr-/- mice applied to a rat anti-mouse LDLR antibody and protein-G beads; immunoblotting

| binding | Molecule |
| --- | --- |
| binds | apolipoprotein B100 (from UniProt E9Q414 28-4505) |
| binds | apolipoprotein E (protein, UniProt P08226 19-311) EGEPEVTDQLEWQSNQPWEQALNRFWDYLRWVQTLSDQVQEELQSSQVTQELTALMEDTMTEVKAYKKELEEQLGPVAEETRARLGKEVQAAQARLGADMEDLRNRLGQYRNEVHTMLGQSTEEIRARLSTHLRKMRKRLMRDAEDLQKRLAVYKAGAREGAERGVSAIRERLGPLVEQGRQRTANLGAGAAQPLRDRAQAFGDRIRGRLEEVGNQARDRLEEVREHMEEVRSKMEEQTQQIRLQAEIFQARLKGWFEPIVEDMHRQWANLMEKIQASVATNPIITPVAQENQ |
